Test results from patent EP0903346A1, “SYDNONE IMINE DERIVATIVES” (Chugai Seiyaku Kabushiki Kaisha, priority 1995, dated 1997).

Tested on: rat ischemia-reperfusion model
Experiment: Myocardial necrosis inhibitory effect in rat ischemia-reperfusion model
Assay type: in vivo
Conditions: risk area/left ventricle, mean ± standard error
Description: Male Sprague Dawley rats weighing 270 to 410 g were anesthetized with sodium pentobarbital (50 mg/kg, i.p.) and fixed in the supine position. A canula was inserted into the trachea of each animal. Then the blood pressure of the animal was measured (AP-621G, Nippon Kohden Corp.) through a polyethylene tube (PE50, Becton Dickinson) inserted into the right femoral artery via a pressure transducer (Life Kit DTS, DX-300, Nippon Kohden Corp.) and the heart rate was determined from the pulse wave (AT-610G, Nippon Kohden Corp.). Two canulae (PE10 and PE50, Becton Dickinson) for injecting the maintenance anesthetic drug (sodium pentobarbital 20 mg/kg/h) and a coloring matter respectively were inserted into the right jugular vein. The left jugular vein was exposed for blood collection. The chest was opened by vertically sectioning the chest region from the third to fifth left ribs about 10 mm apart from the median line under artificial respiration with room air (Harvard respirator, model 683, rate : 60 strokes/min. tidal volume : 10 ml/kg body weight). Then the operative field was enlarged with a wound retractor and the heart sac was peeled off to thereby expose the heart. By using a curved round needle with thread for vascular tract (8mm, 6-0 black blaid silk, Matsuda Medical Industry), a thread of 4 to 5 mm in length was put in the left ventricle in the depth of 2 mm for ligating the coronary artery. After the completion of the operation, the animal was allowed to stand as such for 20 minutes or longer. After confirming that the blood pressure and the heart rate had been stabilized, the experiment was initiated.
In this experiment, use was made of eight groups of rats including: 1) a physiological saline (i.e., the solvent for SIN-1) group; 2) an SIN-1 (3 µg/kg/min) group; 3) another SIN-1 (10 µg/kg/min) group; 4) 1% DMSO-containing physiological saline (adjusted to pH 5 with hydrochloric acid, i.e., the solvent for the compounds of Examples 1 and 2) group; 5) a group of the compound of Example 1 (10 µg/kg/min); 6) another group of the compound of Example 1 (30 µg/kg/min); 7) a group of the compound of Example 2 (3 µg/kg/min); and 8) another group of the compound of Example 2 (10 µg/kg/min). Each drug was intravenously administered continuously for 75 minutes (from 15 minutes before the ligation of the coronary artery to the completion of the reflow) at a rate of 0.95 ml/h. […] After 30-minutes reflow, the risk area (RA) and the necrosis area (NA) were measured.
The risk area and the necrosis area formed by ligating the coronary artery were measured by the double staining method with Evans blue and triphenyltetrazolium chloride (TTC) in the following manner. […]

[1] = 10 µg/kg/min intravenously for 75 minutes

| Compound | RA/LV [1] [%] | RA/LV (30 µg/kg/min intravenously for 75 minutes) [%] | RA/LV (3 µg/kg/min intravenously for 75 minutes) [%] |
| --- | --- | --- | --- |
| CN1CCN([n+]2cc([N-]C(=O)CSc3cc(C(C)(C)C)c(O)c(C(C)(C)C)c3)on2)CC1 [Example 1, N-((3,5-Di-t-butyl-4-hydroxyphenylthio)acetyl)-3-(4-methylpiperazin-1-yl)sydnonimine] | 34.0±2.6 | 36.5±3.7 |  |
| Cl.N=c1c[n+](N2CCOCC2)[n-]o1 [SIN-1, 3-morpholinosydnonimine hydrochloride, reference compound] | 48.9±4.9 |  | 49.0±3.0 |
